A short description of the data set: general procedure: Fmoc solid-phase peptide synthesis; 2-chlorotrityl chloride resin (100–200 mesh, 0.4–1.0 mmol/g; loading 0.6 mmol/g); HCTU/DIPEA. The note with it: whole synthesis, TFA salt; for final HPLC purity: 214 nm.
Where [1] appears, read: scale of the general procedure 0.1 mmol.
Where [2] appears, read: scale of the general procedure 0.1 mmol, cyclic, sequence written open.
Setting [3] is: scale 10 mmol, cyclic, sequence written open.
[4] abbreviates: scale of the general procedure 0.1 mmol, side-chain lactam ring, sequence written open.

Consider 19 substances from PMC11428279 (ACS Central Science, 2024).

Square brackets hold non-standard residues; d marks the D form. Ends that are not written are not given here. * marks the point of attachment. Pen = CC(C)(S)[C@H](N)C(=O)O; dOrn = NCCC[C@@H](N)C(=O)O; Nonanoyl = CCCCCCCCC(=O)*; Orn = NCCC[C@H](N)C(=O)O; Dap = NC[C@H](N)C(=O)O; Alloc = C=CCOC(=O)*

“Nonanoyl-[dS][dY][dW][dOrn][Orn]G[dOrn]W[Dap]INGG”: the isolated mass was 2.7 mg. Besides, under setting [1], the “final HPLC purity” value was determined as 99.5% and the isolated yield worked out at 2.69%.
In the case of “Nonanoyl-[dS][dY][dW][dOrn][Orn]G[dOrn]WSINGG”, the isolated mass is listed as 28.2 mg. Moreover, under setting [1], the “final HPLC purity” value is reported as 95.04% and the isolated yield amounted to 17.71%.
Taken in the same sequence, the figures for “Nonanoyl-[dS][dY][dW][dOrn][Orn]G[dOrn]W[Pen]INGC (cysteine pairing not given here)” were 61.2 mg, 96.48% and 36.06%.
Taken in the same sequence, the figures for “Nonanoyl-[dS][dY][dW][dOrn][Orn]G[dOrn]WTIAGG” were 3.8 mg, 98.81% and 2.43%.
For H-[dS][dY][dW][dOrn][Orn]G[dOrn]WTINGG, in that order: 4.2 mg, 95.45% and 2.94%.
H-Thr-Ile-Asn-Gly-Gly: under setting [2], the “final HPLC purity” value worked out at 95.54% and the isolated yield was determined as 8.38%. For the setting “cyclic, sequence written open”, the isolated mass amounted to 3.9 mg.
Regarding “Nonanoyl-[dS][dY][dW][dOrn][Orn]G[dOrn]WTINGG-OH”, the isolated mass is given as 41.3 mg. Further, under setting [1], the “final HPLC purity” value is 95.18% and the isolated yield was 25.47%.
As to “7-methyloctanoyl-D-Ser-D-Tyr-D-Trp-D-Orn-Orn-Gly- D-Orn-Trp-Thr-Ile-Asn-Gly-Gly”, the “final HPLC purity” value under setting [2] is listed as 95.12%. For the same substance, the isolated yield runs as follows: (overall, scale of the general procedure 0.1 mmol, cyclic, sequence written open) 17.07%; under setting [3], 9.9%. The isolated mass is 27.4 mg (scale 0.1 mmol, cyclic, sequence written open) and 1600 mg under setting [3].
Regarding “Nonanoyl-D-Ser-D-Tyr-D-Trp-D-Orn-Orn-Gly- D-Orn-Trp-AzidoThr-Ile-Asn-Gly-Gly-NH2”, the isolated mass was found to be 24.8 mg. For the same substance, under setting [1], the “final HPLC purity” value came out at 95.88% and the isolated yield was 15.05%.
In the case of “2,4-DCB-D-Ser-D-Tyr-D-Trp-D-Orn-Orn-Gly- D-Orn-Trp-Thr-Ile-Asn-Gly-Gly”, the isolated mass turned out to be 14.5 mg. Further, under setting [1], the “final HPLC purity” value is reported as 97.74% and the isolated yield is 8.85%.
Consider “Nonanoyl-[dS][dY][dW][dOrn][Orn]G[dOrn]W[Dap](Alloc)INGG-NH2”, for which the isolated mass stood at 84.4 mg. Further, under setting [1], the “final HPLC purity” value was determined as 95.81% and the isolated yield was found to be 49.91%.
For “Nonanoyl-[dS][dY][dW][dOrn][Orn]G[dOrn]ATINGG”, in that order: 2.7 mg, 98.01% and 2.1%.
For “Nonanoyl-[dS][dY][dW][dOrn][Orn]G[dOrn]WTINGG”, in that order: 15.2 mg, 98.79% and 9.47%.
Taken in the same sequence, the figures for “Nonanoyl-[dS][dY][dW][dOrn][Orn]G[dOrn]WTING-NH2” were 70.7 mg, 97.38% and 45.17%.
Take “Nonanoyl-[dS][dY][dW][dOrn][Orn]G[dOrn]WTINGG-NH2”: the isolated mass was 81.9 mg. For the same substance, under setting [1], the “final HPLC purity” value worked out at 96.97% and the isolated yield was found to be 50.46%.
For “Nonanoyl-[dS][dY][dW][dOrn][Orn]G[dOrn]WTANGG”, the isolated mass amounted to 30.1 mg. Moreover, under setting [1], the “final HPLC purity” value was determined as 97.67% and the isolated yield came out at 19.27%.
Taken in the same sequence, the figures for “Nonanoyl-[dS][dY][dW][dOrn][Orn]G[dOrn]WTINAG” were 7.4 mg, 95.20% and 4.57%.
For “Nonanoyl-D-Ser-D-Tyr-D-Trp-D-Orn-Orn-Gly- D-Orn-Trp-2,3-Dab-Ile-Asn-Gly-Gly”, under setting [4], the “final HPLC purity” value stood at 95.74% and the isolated yield turned out to be 37.34%. For the same substance, under “side-chain lactam ring, sequence written open”, the isolated mass came out at 51.9 mg.
Take “Nonanoyl-[dS][dY][dW][dOrn][Orn]G[dOrn]WTINGA”: the isolated mass came to 5.5 mg. Under setting [1], the “final HPLC purity” value worked out at 96.08% and the isolated yield came out at 3.39%.
